For one molecule, binding results are on record in PMC12011818.

In this assay the target is T1, IRF9, Q00978.
T1 chain: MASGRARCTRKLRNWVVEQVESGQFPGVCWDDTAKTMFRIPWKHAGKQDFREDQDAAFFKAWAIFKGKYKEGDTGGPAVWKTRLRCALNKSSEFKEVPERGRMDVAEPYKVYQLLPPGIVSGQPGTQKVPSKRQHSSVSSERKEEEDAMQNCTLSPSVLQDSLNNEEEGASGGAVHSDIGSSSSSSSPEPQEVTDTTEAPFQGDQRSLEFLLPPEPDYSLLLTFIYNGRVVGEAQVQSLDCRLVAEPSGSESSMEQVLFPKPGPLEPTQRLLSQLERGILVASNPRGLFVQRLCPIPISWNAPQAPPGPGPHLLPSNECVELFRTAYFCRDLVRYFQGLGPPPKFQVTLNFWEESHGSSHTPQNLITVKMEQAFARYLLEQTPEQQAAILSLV
Put plainly: co-IP. The note with it: remark: other sources report otherwise.

These are yes or no findings as the source states them, for the method shown. Binding seen in cells or lysates may run through a third protein. Some entries that bind do so weakly or less than the wild type.

B1: STAT1, P42224 1-750 (protein)
chain: MSQWYELQQLDSKFLEQVHQLYDDSFPMEIRQYLAQWLEKQDWEHAANDVSFATIRFHDLLSQLDDQYSRFSLENNFLLQHNIRKSKRNLQDNFQEDPIQMSMIIYSCLKEERKILENAQRFNQAQSGNIQSTVMLDKQKELDSKVRNVKDKVMCIEHEIKSLEDLQDEYDFKCKTLQNREHETNGVAKSDQKQEQLLLKKMYLMLDNKRKEVVHKIIELLNVTELTQNALINDELVEWKRRQQSACIGGPPNACLDQLQNWFTIVAESLQQVRQQLKKLEELEQKYTYEHDPITKNKQVLWDRTFSLFQQLIQSSFVVERQPCMPTHPQRPLVLKTGVQFTVKLRLLVKLQELNYNLKVKVLFDKDVNERNTVKGFRKFNILGTHTKVMNMEESTNGSLAAEFRHLQLKEQKNAGTRTNEGPLIVTEELHSLSFETQLCQPGLVIDLETTSLPVVVISNVSQLPSGWASILWYNMLVAEPRNLSFFLTPPCARWAQLSEVLSWQFSSVTKRGLNVDQLNMLGEKLLGPNASPDGLIPWTRFCKENINDKNFPFWLWIESILELIKKHLLPLWNDGCIMGFISKERERALLKDQQPGTFLLRFSESSREGAITFTWVERSQNGGEPDFHAVEPYTKKELSAVTFPDIIRNYKVMAAENIPENPLKYLYPNIDKDHAFGKYYSRPKEAPEPMELDGPKGTGYIKTELISVSEVHPSRLQTTDNLLPMSPEEFDEVSRIVGSVEFDSMMNTV
Turning to B1, the binding entry is listed as “binds”.
